Values quoted from earlier work in US20240299481A1, “STEPHANIA CEPHARANTHA-DERIVED ALKALOID-CONTAINING PREPARATION” (JAPAN AS REPRESENTED BY DIRECTOR-GENERAL OF NATIONAL …, priority 2021, published 2024).
At least one structure is not confirmed: it was looked up by name or label, or the drawing left a doubt.

System: human coronavirus OC43 strain
Settings: early stage of infection in cells, MRC-5 human lung cells; cited from earlier work

SMILES: COc1ccc2cc1Oc1ccc(cc1)C[C@H]1c3cc(c(OC)cc3CCN1C)Oc1c(OC)c(OC)cc3c1[C@H](C2)N(C)CC3 [Tetrandrine, reference compound]
- antiviral effects on the human coronavirus OC43 strain: have antiviral effects
